Experimental data: PubChem BioAssay AID1053208 (Peter MacCallum Cancer Centre, 2014)
Screen: 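Synthetic lethal interactions between gene loss and doxorubicin in osteosarcoma cells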 (primary screen). Cells: mouse osteosarcoma cells, early-passage culture from an engineered mouse model of fibroblastic bone tumour. Reagent: siRNA pool against mouse genes, 40 nM. Time to read-out: about 120 h (48 h before drug, then 72 h with drug). Challenge: doxorubicin 100 nM for 72 h, roughly 30-40% inhibitory dose. Read-out: 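Viability read as ATP luminescence after 72 h of 100 nM doxorubicin or none, duplicate wells averaged, scaled to non-targeting siRNA, then expressed as robust z-scores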. Reading the numbers: viability z-score with doxorubicin: higher = more viable cells under doxorubicin; viability z-score without drug: higher = more viable cells with knock-down alone. Call rule: 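Called active if knock-down leaves viability unchanged without drug (z within -2 to 2) but lowers it with doxorubicin (z at or under -2)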.
The whole screen tested about 17,000 reagents; below is an unselected part. In the full data, 788 (4.7%) got an active call. 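Calls rest on z-score classes alone; an extra cut-off of viability at most 70% of control was not applied to them.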 Entries without a mark were called inactive. A reagent listed more than once was tested more than once; the source does not tell the runs apart. Further read-outs or replicates are left out here.

combined z-score class	viability z-score with doxorubicin	viability z-score without drug	Target gene
no change with or without drug	-0.9	-0.51	Metrnl (meteorin, glial cell differentiation regulator-like)
no change with or without drug	-0.22	0.34	Tshb (thyroid stimulating hormone, beta subunit)
no change with or without drug	1.46	0.84	Spry4 (sprouty RTK signaling antagonist 4)
no change with or without drug	-1.24	0.17	Itm2a (integral membrane protein 2A)
no change with or without drug	0.45	0.67	Tmed9 (transmembrane p24 trafficking protein 9)
no change with or without drug	-0.45	-0.51	Kpna4 (karyopherin subunit alpha 4)
no change with or without drug	1.57	1.52	Exoc3l2 (exocyst complex component 3-like 2)
no change with or without drug	0.9	0.84	Or5p4 (olfactory receptor family 5 subfamily P member 4)
no change with or without drug	-1.35	-1.52	Capn6 (calpain 6)
no change with or without drug	0.34	-0.17	Kcnj4 (potassium inwardly-rectifying channel, subfamily J, member 4)
no change with or without drug	0.79	-1.85	Or10q12 (olfactory receptor family 10 subfamily Q member 12)
no change with or without drug	-0.67	-0.84	Tacr1 (tachykinin receptor 1)
no change with or without drug	1.24	0.84	Artn (artemin)
low cell count with doxorubicin only (active)	-2.02	-0.17	Tlk1 (tousled-like kinase 1)
no change with or without drug	-0.45	-0.84	Rpp25l (ribonuclease P/MRP 25 subunit-like)

Continued (4 carried over from the part before).
combined z-score class	viability z-score with doxorubicin	viability z-score without drug	Target gene
no change with or without drug	-0.67	-0.84	Tacr1 (tachykinin receptor 1)
no change with or without drug	1.24	0.84	Artn (artemin)
low cell count with doxorubicin only (active)	-2.02	-0.17	Tlk1 (tousled-like kinase 1)
no change with or without drug	-0.45	-0.84	Rpp25l (ribonuclease P/MRP 25 subunit-like)
high cell count with doxorubicin only	2.02	-0.34	Dgki (diacylglycerol kinase, iota)
no change with or without drug	-0.67	0.67	Chmp7 (charged multivesicular body protein 7)
no change with or without drug	-1.35	-1.69	Kmo (kynurenine 3-monooxygenase)
no change with or without drug	-0.45	-1.18	Cibar1 (CBY1 interacting BAR domain containing 1)
no change with or without drug	0.22	-0.17	Casz1 (castor zinc finger 1)
no change with or without drug	-0.67	1.35	Sh2d7 (SH2 domain containing 7)
no change with or without drug	0	-0.67	Lmbr1 (limb region 1)
no change with or without drug	1.57	-0.84	Tor2a (torsin family 2, member A)
low cell count without drug only	-0.45	-4.55	Cnpy2 (canopy FGF signaling regulator 2)
no change with or without drug	0.56	0.17	Gm20558 (predicted gene, 20558)
no change with or without drug	-1.91	-0.51	Cbx6 (chromobox 6)
high cell count without drug only	1.57	2.02	Cbx6 (chromobox 6)
low cell count without drug only	-1.01	-3.2	Rpl7l1 (ribosomal protein L7-like 1)
no change with or without drug	-0.45	-0.17	Vgll1 (vestigial like family member 1)
no change with or without drug	0	0.67	Emp2 (epithelial membrane protein 2)
no change with or without drug	-0.9	0.17	Fbxw5 (F-box and WD-40 domain protein 5)
no change with or without drug	-1.12	0.51	Poglut2 (protein O-glucosyltransferase 2)
no change with or without drug	0.67	0.51	Tifa (TRAF-interacting protein with forkhead-associated domain)
no change with or without drug	-0.56	0.34	Fgf12 (fibroblast growth factor 12)
